# Experimental data published in the supplement of paper PMC8728848.
# The list shows a part of the results.
# B1: AntigenI/IIA3VP1 (Streptococcus mutans), C9E3B4 (protein)
# chain: AANEADYQAKLTAYQTELARVQKANADAKAAYEAAVAANNAANAALTAENTAIKKRNADAKADYEAKLAKYQADLAKYQKDLADYPVKLKAYEDEQASIKAALAELEKHKNEDGNLTEPSAQNLVYDLEPNANLSLTTDGKFLKASAVDDAFSKSTSKAKYDQKILQLDDLDITNLEQSNDVASSMELYGNFGDKAGWSTTVSNNSQVKWGSVLLERGQSATATYTNLQNSYYNGKKISKIVYKYTVDPKSKFQGQKVWLGIFTDPTLGVFASAYTGQVEKNTSIFIKNEFTFYDEDGKPINFDNALLSVASLNREHNSIEMAKDYSGKFVKISGSSIGEKNGMIYATDTLNFKQGEGGSRWTMYKNSQAGSGWDSSDAPNSWYGAGAIKMSGPNNYVTVGATSATNVMPVSDMPVVPGKDNTDGKKPNIWYSLNGKIRAVNVPKVTKEKPTPPVKPTAPTKPTYETEKPLKPAPVAPNYEKEPTPPTRLEHHHHHH
# Columns and labels:
# Assay in all cases: glycan array binding signal (z-score within array); higher = stronger binding
# Details in all cases: glycan notation: IUPAC condensed, linker removed
# [1] = molecular target: Fuc(a1-2)[GalNAc(a1-3)]Gal(b1-3)GlcNAc(b1-6)GalNAc
# Outline: (§1)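 The binding signal is a Z-score computed within each array. Data were drawn from 3228 arrays in the Consortium for Functional Glycomics database, restricted to those with a known protein sequence. Scores were averaged over arrays of the same protein sequence at different concentrations or buffers, and over linkers, and negative values can be taken as non-binding.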
# [2] = molecular target: Fuc(a1-2)[GalNAc(a1-3)]Gal(b1-4)Glc
# Outline: as §1
# [3] = molecular target: Fuc(a1-2)[GalNAc(a1-3)]Gal(b1-4)GlcNAc
# Outline: as §1
# [4] = molecular target: Fuc(a1-2)[GalNAc(a1-3)]Gal(b1-4)GlcNAc(b1-2)Man
# Outline: as §1
# [5] = molecular target: Fuc(a1-2)[GalNAc(a1-3)]Gal(b1-4)GlcNAc(b1-2)Man(a1-3)[Fuc(a1-2)[GalNAc(a1-3)]Gal(b1-4)GlcNAc(b1-2)Man(a1-6)]Man(b1-4)GlcNAc(b1-4)GlcNAc
# Outline: as §1
# [6] = molecular target: Fuc(a1-2)[GalNAc(a1-3)]Gal(b1-4)GlcNAc(b1-2)Man(a1-3)[Fuc(a1-2)[GalNAc(a1-3)]Gal(b1-4)GlcNAc(b1-2)Man(a1-6)]Man(b1-4)GlcNAc(b1-4)[Fuc(a1-6)]GlcNAc
# Outline: as §1
# [7] = molecular target: Fuc(a1-2)[GalNAc(a1-3)]Gal(b1-4)GlcNAc(b1-3)Gal(b1-4)GlcNAc
# Outline: as §1
# [8] = molecular target: Fuc(a1-2)[GalNAc(a1-3)]Gal(b1-4)GlcNAc(b1-3)Gal(b1-4)GlcNAc(b1-3)Gal(b1-4)GlcNAc
# Outline: as §1
# [9] = molecular target: Fuc(a1-2)[GalNAc(a1-3)]Gal(b1-4)GlcNAc(b1-3)GalNAc
# Outline: as §1
# [10] = molecular target: Fuc(a1-2)[GalNAc(a1-3)]Gal(b1-4)GlcNAc(b1-3)[Fuc(a1-2)[GalNAc(a1-3)]Gal(b1-4)GlcNAc(b1-6)]GalNAc
# Outline: as §1
# [11] = molecular target: Fuc(a1-2)[GalNAc(a1-3)]Gal(b1-4)GlcNAc(b1-6)GalNAc
# Outline: as §1
# [12] = molecular target: Fuc(a1-2)[GalNAc(a1-3)]Gal(b1-4)[Fuc(a1-3)]GlcNAc
# Outline: as §1
# [13] = molecular target: Fuc(a1-2)[GalNAc(a1-3)]Gal(b1-4)[Fuc(a1-3)]GlcNAc(b1-3)GalNAc
# Outline: as §1
# [14] = molecular target: Fuc(a1-2)[GalNAc(a1-4)]Gal(b1-4)GlcNAc
# Outline: as §1
# [15] = molecular target: Fuc(a1-2)[GalNAc(b1-3)]Gal
# Outline: as §1
# Fuc(a1-3)GlcNAc = molecular target: Fuc(a1-3)GlcNAc
# Outline: as §1
# [16] = molecular target: Fuc(a1-3)[Gal(b1-4)]Glc6S
# Outline: as §1
# [17] = molecular target: Fuc(a1-3)[Gal(b1-4)]GlcNAc
# Outline: as §1
# [18] = molecular target: Fuc(a1-3)[Gal(b1-4)]GlcNAc(b1-2)Man
# Outline: as §1
# [19] = molecular target: Fuc(a1-3)[Gal(b1-4)]GlcNAc(b1-2)Man(a1-3)[Fuc(a1-3)[Gal(b1-4)]GlcNAc(b1-2)Man(a1-6)]Man(b1-4)GlcNAc(b1-4)GlcNAc
# Outline: as §1
# [20] = molecular target: Fuc(a1-3)[Gal(b1-4)]GlcNAc(b1-2)Man(a1-3)[Fuc(a1-3)[Gal(b1-4)]GlcNAc(b1-2)Man(a1-6)]Man(b1-4)GlcNAc(b1-4)[Fuc(a1-6)]GlcNAc
# Outline: as §1
# [21] = molecular target: Fuc(a1-3)[Gal(b1-4)]GlcNAc(b1-3)Gal(b1-3)[Fuc(a1-4)]GlcNAc
# Outline: as §1
# [22] = molecular target: Fuc(a1-3)[Gal(b1-4)]GlcNAc(b1-3)Gal(b1-4)[Fuc(a1-3)]GlcNAc
# Outline: as §1
# [23] = molecular target: Fuc(a1-3)[Gal(b1-4)]GlcNAc(b1-3)Gal(b1-4)[Fuc(a1-3)]GlcNAc(b1-3)Gal(b1-4)[Fuc(a1-3)]GlcNAc
# Outline: as §1
# [24] = molecular target: Fuc(a1-3)[Gal(b1-4)]GlcNAc(b1-3)GalNAc
# Outline: as §1
# [25] = molecular target: Fuc(a1-3)[Gal(b1-4)]GlcNAc(b1-6)GalNAc
# Outline: as §1
# [26] = molecular target: Fuc(a1-3)[Gal(b1-4)]GlcNAc(b1-6)[Gal(b1-3)GlcNAc(b1-3)]Gal(b1-4)Glc
# Outline: as §1
# [27] = molecular target: Fuc(a1-3)[Gal(b1-4)]GlcNAc6S
# Outline: as §1
# [28] = molecular target: Fuc(a1-3)[Gal3S(b1-4)]Glc
# Outline: as §1
# [29] = molecular target: Fuc(a1-3)[Gal3S(b1-4)]GlcNAc
# Outline: as §1
# [30] = molecular target: Fuc(a1-3)[Gal3S(b1-4)]GlcNAc6S
# Outline: as §1
# [31] = molecular target: Fuc(a1-3)[GalNAc(b1-4)]GlcNAc
# Outline: as §1
# [32] = molecular target: Fuc(a1-3)[GalNAc(b1-4)]GlcNAc6S
# Outline: as §1
# Fuc(a1-4)GlcNAc = molecular target: Fuc(a1-4)GlcNAc
# Outline: as §1
# Fuc(b1-3)GlcNAc = molecular target: Fuc(b1-3)GlcNAc
# Outline: as §1
# Gal(a1-2)Gal = molecular target: Gal(a1-2)Gal
# Outline: as §1
# Gal(a1-3)Gal = molecular target: Gal(a1-3)Gal
# Outline: as §1
# Gal(a1-3)Gal(b1-3)GlcNAc = molecular target: Gal(a1-3)Gal(b1-3)GlcNAc
# Outline: as §1
# [33] = molecular target: Gal(a1-3)Gal(b1-3)GlcNAc(b1-2)Man
# Outline: as §1
# [34] = molecular target: Gal(a1-3)Gal(b1-3)GlcNAc(b1-2)Man(a1-3)[Gal(a1-3)Gal(b1-3)GlcNAc(b1-2)Man(a1-6)]Man(b1-4)GlcNAc(b1-4)GlcNAc
# Outline: as §1
# [35] = molecular target: Gal(a1-3)Gal(b1-3)GlcNAc(b1-3)GalNAc
# Outline: as §1
# [36] = molecular target: Gal(a1-3)Gal(b1-3)GlcNAc(b1-6)GalNAc
# Outline: as §1
# [37] = molecular target: Gal(a1-3)Gal(b1-3)[Fuc(a1-4)]GlcNAc(b1-2)Man(a1-3)[Gal(a1-3)Gal(b1-3)[Fuc(a1-4)]GlcNAc(b1-2)Man(a1-6)]Man(b1-4)GlcNAc(b1-4)GlcNAc
# Outline: as §1
# Gal(a1-3)Gal(b1-4)Glc = molecular target: Gal(a1-3)Gal(b1-4)Glc
# Outline: as §1
# Gal(a1-3)Gal(b1-4)GlcNAc = molecular target: Gal(a1-3)Gal(b1-4)GlcNAc
# Outline: as §1
binder,measurement,setting,value
B1,glycan array binding signal (z-score),[1],-0.332
same,glycan array binding signal (z-score),[2],-0.73
same,glycan array binding signal (z-score),[3],-0.846
same,glycan array binding signal (z-score),[4],-0.981
same,glycan array binding signal (z-score),[5],1.01
same,glycan array binding signal (z-score),[6],0.155
same,glycan array binding signal (z-score),[7],-0.716
same,glycan array binding signal (z-score),[8],0.177
same,glycan array binding signal (z-score),[9],0.387
same,glycan array binding signal (z-score),[10],0.2
same,glycan array binding signal (z-score),[11],-0.877
same,glycan array binding signal (z-score),[12],0.39
same,glycan array binding signal (z-score),[13],1.57
same,glycan array binding signal (z-score),[14],0.888
same,glycan array binding signal (z-score),[15],0.107
same,glycan array binding signal (z-score),Fuc(a1-3)GlcNAc,0.171
same,glycan array binding signal (z-score),[16],-0.335
same,glycan array binding signal (z-score),[17],0.825
same,glycan array binding signal (z-score),[18],-0.375
same,glycan array binding signal (z-score),[19],0.126
same,glycan array binding signal (z-score),[20],0.761
same,glycan array binding signal (z-score),[21],-0.626
same,glycan array binding signal (z-score),[22],0.907
same,glycan array binding signal (z-score),[23],-0.372
same,glycan array binding signal (z-score),[24],2.64
same,glycan array binding signal (z-score),[25],0.145
same,glycan array binding signal (z-score),[26],-1.16
same,glycan array binding signal (z-score),[27],0.21
same,glycan array binding signal (z-score),[28],0.537
same,glycan array binding signal (z-score),[29],0.994
same,glycan array binding signal (z-score),[30],1.19
same,glycan array binding signal (z-score),[31],0.932
same,glycan array binding signal (z-score),[32],-0.39
same,glycan array binding signal (z-score),Fuc(a1-4)GlcNAc,-0.388
same,glycan array binding signal (z-score),Fuc(b1-3)GlcNAc,-0.59
same,glycan array binding signal (z-score),Gal(a1-2)Gal,-0.596
same,glycan array binding signal (z-score),Gal(a1-3)Gal,-0.197
same,glycan array binding signal (z-score),Gal(a1-3)Gal(b1-3)GlcNAc,-0.563
same,glycan array binding signal (z-score),[33],-0.641
same,glycan array binding signal (z-score),[34],3.47
same,glycan array binding signal (z-score),[35],2.79
same,glycan array binding signal (z-score),[36],0.993
same,glycan array binding signal (z-score),[37],0.369
same,glycan array binding signal (z-score),Gal(a1-3)Gal(b1-4)Glc,-0.763
same,glycan array binding signal (z-score),Gal(a1-3)Gal(b1-4)GlcNAc,-0.983

# A different layout for part of the listing above:
binder | measurement | setting | value
B1 | glycan array binding signal (z-score) | [33] | -0.641
same | glycan array binding signal (z-score) | [34] | 3.47
same | glycan array binding signal (z-score) | [35] | 2.79
same | glycan array binding signal (z-score) | [36] | 0.993
